# Measurements reported in the supplement of paper PMC8728848.
# The other results are listed elsewhere or left out.
# Experiments:
# Assay in all cases: glycan array binding signal (z-score within array); higher = stronger binding
# Settings in all cases: glycan notation: IUPAC condensed, linker removed
# Fuc(a1-2)Gal = target: Fuc(a1-2)Gal
# How it was run: (§1)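 Negative Z-scores can be read as non-binding. The Z-score is calculated within each array and then averaged across arrays of one protein sequence at different concentrations or buffers and across linkers. Arrays, 3228 in all, were curated from the Consortium for Functional Glycomics database and kept only where the protein sequence was available.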
# Fuc(a1-2)Gal(b1-3)GalNAc = target: Fuc(a1-2)Gal(b1-3)GalNAc
# How it was run: as §1
# [1] = target: Fuc(a1-2)Gal(b1-3)GalNAc(a1-3)[Fuc(a1-2)]Gal(b1-4)Glc
# How it was run: as §1
# [2] = target: Fuc(a1-2)Gal(b1-3)GalNAc(a1-3)[Fuc(a1-2)]Gal(b1-4)GlcNAc
# How it was run: as §1
# [3] = target: Fuc(a1-2)Gal(b1-3)GalNAc(b1-3)Gal
# How it was run: as §1
# [4] = target: Fuc(a1-2)Gal(b1-3)GalNAc(b1-3)Gal(a1-4)Gal(b1-4)Glc
# How it was run: as §1
# [5] = target: Fuc(a1-2)Gal(b1-3)GalNAc(b1-4)[Neu5Ac(a2-3)]Gal(b1-4)Glc
# How it was run: as §1
# Fuc(a1-2)Gal(b1-3)GlcNAc = target: Fuc(a1-2)Gal(b1-3)GlcNAc
# How it was run: as §1
# [6] = target: Fuc(a1-2)Gal(b1-3)GlcNAc(b1-2)Man(a1-3)[Fuc(a1-2)Gal(b1-3)GlcNAc(b1-2)Man(a1-6)]Man(b1-4)GlcNAc(b1-4)GlcNAc
# How it was run: as §1
# [7] = target: Fuc(a1-2)Gal(b1-3)GlcNAc(b1-2)Man(a1-3)[Fuc(a1-2)Gal(b1-3)GlcNAc(b1-2)Man(a1-6)]Man(b1-4)GlcNAc(b1-4)[Fuc(a1-6)]GlcNAc
# How it was run: as §1
# [8] = target: Fuc(a1-2)Gal(b1-3)GlcNAc(b1-3)Gal(b1-4)Glc
# How it was run: as §1
# [9] = target: Fuc(a1-2)Gal(b1-3)GlcNAc(b1-3)GalNAc
# How it was run: as §1
# [10] = target: Fuc(a1-2)Gal(b1-3)GlcNAc(b1-3)[Fuc(a1-2)Gal(b1-3)GlcNAc(b1-6)]GalNAc
# How it was run: as §1
# [11] = target: Fuc(a1-2)Gal(b1-3)GlcNAc(b1-3)[Gal(b1-4)GlcNAc(b1-6)]Gal(b1-4)Glc
# How it was run: as §1
# [12] = target: Fuc(a1-2)Gal(b1-3)GlcNAc(b1-3)[Neu5Ac(a2-6)Gal(b1-4)GlcNAc(b1-6)]Gal(b1-4)Glc
# How it was run: as §1
# [13] = target: Fuc(a1-2)Gal(b1-3)GlcNAc6S
# How it was run: as §1
# [14] = target: Fuc(a1-2)Gal(b1-3)[Fuc(a1-4)]GlcNAc
# How it was run: as §1
# [15] = target: Fuc(a1-2)Gal(b1-3)[Fuc(a1-4)]GlcNAc(b1-2)Man(a1-3)[Fuc(a1-2)Gal(b1-3)[Fuc(a1-4)]GlcNAc(b1-2)Man(a1-3)]Man(b1-4)GlcNAc(b1-4)GlcNAc
# How it was run: as §1
# [16] = target: Fuc(a1-2)Gal(b1-3)[Fuc(a1-4)]GlcNAc(b1-2)Man(a1-3)[Fuc(a1-2)Gal(b1-3)[Fuc(a1-4)]GlcNAc(b1-2)Man(a1-6)]Man(b1-4)GlcNAc(b1-4)[Fuc(a1-6)]GlcNAc(b1-4)[Fuc(a1-6)]GlcNAc
# How it was run: as §1
# [17] = target: Fuc(a1-2)Gal(b1-3)[Fuc(a1-4)]GlcNAc(b1-3)[Fuc(a1-3)[Gal(b1-4)]GlcNAc(b1-6)]Gal(b1-4)Glc
# How it was run: as §1
# [18] = target: Fuc(a1-2)Gal(b1-3)[Fuc(a1-4)]GlcNAc(b1-3)[Gal(b1-4)GlcNAc(b1-6)]Gal(b1-4)Glc
# How it was run: as §1
# Fuc(a1-2)Gal(b1-4)Glc = target: Fuc(a1-2)Gal(b1-4)Glc
# How it was run: as §1
# Fuc(a1-2)Gal(b1-4)Glc6S = target: Fuc(a1-2)Gal(b1-4)Glc6S
# How it was run: as §1
# Fuc(a1-2)Gal(b1-4)GlcNAc = target: Fuc(a1-2)Gal(b1-4)GlcNAc
# How it was run: as §1
# [19] = target: Fuc(a1-2)Gal(b1-4)GlcNAc(b1-2)Man
# How it was run: as §1
# [20] = target: Fuc(a1-2)Gal(b1-4)GlcNAc(b1-2)Man(a1-3)[Fuc(a1-2)Gal(b1-4)GlcNAc(b1-2)Man(a1-6)]Man(b1-4)GlcNAc(b1-4)GlcNAc
# How it was run: as §1
# [21] = target: Fuc(a1-2)Gal(b1-4)GlcNAc(b1-2)Man(a1-3)[Fuc(a1-2)Gal(b1-4)GlcNAc(b1-2)Man(a1-6)]Man(b1-4)GlcNAc(b1-4)[Fuc(a1-6)]GlcNAc
# How it was run: as §1
# [22] = target: Fuc(a1-2)Gal(b1-4)GlcNAc(b1-2)[Fuc(a1-2)Gal(b1-4)GlcNAc(b1-4)]Man(a1-3)[Fuc(a1-2)Gal(b1-4)GlcNAc(b1-2)Man(a1-6)]Man(b1-4)GlcNAc(b1-4)GlcNAc
# How it was run: as §1
# [23] = target: Fuc(a1-2)Gal(b1-4)GlcNAc(b1-3)Gal(b1-4)GlcNAc
# How it was run: as §1
# [24] = target: Fuc(a1-2)Gal(b1-4)GlcNAc(b1-3)Gal(b1-4)GlcNAc(b1-2)Man(a1-3)[Fuc(a1-2)Gal(b1-4)GlcNAc(b1-3)Gal(b1-4)GlcNAc(b1-2)Man(a1-6)]Man(b1-4)GlcNAc(b1-4)GlcNAc
# How it was run: as §1
binder,measurement,setting,value
Clone646PsrP (Streptococcus pneumoniae) (protein) MDHHHHHHHHASENLYFQGAPAINASLNIAKSETKVYTGEGVDSVYRVPIYYKLKVTNDGSKLTFTYTVTYVNPKTNDLGNISSMRPGYSIYNSGTSTQTMLTLGSDLGKPSGVKNYITDKNGRQVLSYNTSTMTTQGSGYTWGNGAQMNGFFAKKGYGLTSSWTVPITGTDTSFTFTPYAARTDRIGINYFNGGGKVVESSTTSQSLSQSKSLSVSAS,glycan array binding signal (z-score),Fuc(a1-2)Gal,0.089
same,glycan array binding signal (z-score),Fuc(a1-2)Gal(b1-3)GalNAc,-0.736
same,glycan array binding signal (z-score),[1],-0.841
same,glycan array binding signal (z-score),[2],0.015
same,glycan array binding signal (z-score),[3],0.047
same,glycan array binding signal (z-score),[4],0.319
same,glycan array binding signal (z-score),[5],-0.297
same,glycan array binding signal (z-score),Fuc(a1-2)Gal(b1-3)GlcNAc,-0.088
same,glycan array binding signal (z-score),[6],1.12
same,glycan array binding signal (z-score),[7],0.624
same,glycan array binding signal (z-score),[8],-0.81
same,glycan array binding signal (z-score),[9],-0.729
same,glycan array binding signal (z-score),[10],1.28
same,glycan array binding signal (z-score),[11],-0.478
same,glycan array binding signal (z-score),[12],-0.574
same,glycan array binding signal (z-score),[13],0.76
same,glycan array binding signal (z-score),[14],-0.684
same,glycan array binding signal (z-score),[15],1.88
same,glycan array binding signal (z-score),[16],-0.681
same,glycan array binding signal (z-score),[17],-1.03
same,glycan array binding signal (z-score),[18],-0.829
same,glycan array binding signal (z-score),Fuc(a1-2)Gal(b1-4)Glc,-0.286
same,glycan array binding signal (z-score),Fuc(a1-2)Gal(b1-4)Glc6S,1.62
same,glycan array binding signal (z-score),Fuc(a1-2)Gal(b1-4)GlcNAc,0.068
same,glycan array binding signal (z-score),[19],1.52
same,glycan array binding signal (z-score),[20],-0.397
same,glycan array binding signal (z-score),[21],0.523
same,glycan array binding signal (z-score),[22],-0.303
same,glycan array binding signal (z-score),[23],-0.74
same,glycan array binding signal (z-score),[24],-0.333

# Not a retest: entries from further up.
binder,measurement,setting,value
Clone646PsrP (Streptococcus pneumoniae) (protein) MDHHHHHHHHASENLYFQGAPAINASLNIAKSETKVYTGEGVDSVYRVPIYYKLKVTNDGSKLTFTYTVTYVNPKTNDLGNISSMRPGYSIYNSGTSTQTMLTLGSDLGKPSGVKNYITDKNGRQVLSYNTSTMTTQGSGYTWGNGAQMNGFFAKKGYGLTSSWTVPITGTDTSFTFTPYAARTDRIGINYFNGGGKVVESSTTSQSLSQSKSLSVSAS,glycan array binding signal (z-score),[9],-0.729
same,glycan array binding signal (z-score),[10],1.28
same,glycan array binding signal (z-score),[11],-0.478
same,glycan array binding signal (z-score),[12],-0.574
same,glycan array binding signal (z-score),[13],0.76
same,glycan array binding signal (z-score),[14],-0.684
same,glycan array binding signal (z-score),[15],1.88
